{"source": "ChEMBL document CHEMBL4325851", "about": "“Synthesis of aminopyrazole analogs and their evaluation as CDK inhibitors for cancer therapy” (Bioorg Med Chem Lett, 2018)", "test": "Antiproliferative activity against human S2-013 cells after 72 hrs by prestoblue assay", "format": "functional, cell-based"}
{"smiles": "CC[C@H](CO)Nc1nc(NCc2ccccc2)c2ncn(C(C)C)c2n1", "note": "[SELICICLIB]", "values": [{"measurement": "IC50", "value": 21.7, "unit": "µM"}]}
